Taken from: PubChem BioAssay AID686938 (Drosophila RNAi Screening Center, 2013)
Aim: 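Fly genes required for calcium entry once internal stores are emptied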 (primary screen). System: Drosophila S2R+ cells. Reagents: long dsRNA against Drosophila genes, about 0.25 µg dsRNA per well, roughly 10,000 cells. Duration: 5 days of knock-down before the calcium assay. Treatment: thapsigargin (SERCA pump blocker) to empty calcium stores; entry signal taken 4 min after adding it. Measurement: 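Duplicate raw fluo-4 intensities per well from a plate reader, at rest and four minutes after thapsigargin emptied calcium stores; entry-to-rest ratio filled for only some wells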. Reading the numbers: calcium entry signal: higher = stronger calcium signal after store depletion; entry to resting ratio: higher = more calcium entry relative to resting level; resting calcium signal: higher = higher resting calcium signal. Hit rule: 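Hit if the duplicate-averaged plate z-score for entry over resting signal is under −3; wells with weak total dye signal (Fmax z < −2) or more than 5 off-targets removed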. Calls: active = strongly reduced calcium entry; inactive = no strong reduction.
The screen tested about 23,000 reagents; below is a random part of those that have a named target and a result. Over the whole deposit, 75 (0.33%) are marked active. 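Raw plate signals without normalisation; calls rest on plate z-scores that were not deposited; ratio present for only 364 wells.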 Unmarked entries are inactive. A plus sign joins genes that one reagent is predicted to hit. No sequences are given here. Not stated in the record: the dose of the treatment.

target gene | DRSC id | calcium entry signal, replicate 1 (fluorescence units) | calcium entry signal, replicate 2 (fluorescence units) | entry to resting ratio | resting calcium signal, replicate 1 (fluorescence units) | resting calcium signal, replicate 2 (fluorescence units)
CG18095 | DRSC01948 | 4.39e7 | 3.57e7 | – | 2.05e7 | 1.54e7
rost | DRSC03603 | 4.60e7 | – | – | 2.12e7 | –
Hr96 | DRSC16707 | 4.63e7 | 4.06e7 | – | 1.97e7 | 1.88e7
scny | DRSC10509 | 3.22e7 | 1.95e7 | – | 2.21e7 | 9.13e6
scny | DRSC10510 | 4.29e7 | 4.43e7 | – | 2.24e7 | 2.31e7
scny | DRSC23229 | 3.76e7 | 4.23e7 | – | 1.95e7 | 1.88e7
Mrm2 | DRSC14310 | 3.99e7 | 4.93e7 | – | 6.22e7 | 2.11e7
CG3548 | DRSC04387 | 3.83e7 | – | – | 1.97e7 | –
rau | DRSC03125 | 4.67e7 | – | – | 2.21e7 | –
Itgbn | DRSC03493 | 3.74e7 | 4.43e7 | – | 1.63e7 | 1.76e7
Polr3K + Tcs1 | DRSC05988 | 2.82e7 | 2.94e7 | – | 1.41e7 | 1.28e7
MED10 | DRSC10474 | 2.97e7 | 3.22e7 | – | 1.48e7 | 1.48e7
ohgt | DRSC15521 | 2.36e7 | 1.75e7 | – | 1.21e7 | 9.62e6
AANATL6 | DRSC06773 | 4.59e7 | 4.74e7 | – | 1.95e7 | 2.25e7
Nopp140 | DRSC11872 | 2.90e7 | 4.56e7 | – | 1.42e7 | 1.93e7
GCS2beta | DRSC02960 | 3.50e7 | 1.89e7 | – | 1.72e7 | 1.05e7
ACC | DRSC06059 | 2.14e7 | 2.81e7 | – | 1.13e7 | 1.19e7
ACC | DRSC07249 | 1.80e7 | 2.63e7 | – | 1.30e7 | 1.50e7
Cog3 | DRSC00585 | 4.20e7 | – | – | 2.25e7 | –
CG8435 | DRSC07179 | 2.09e7 | 2.07e7 | – | 1.23e7 | 1.25e7
CG18477 + CG31780 | DRSC01955 | 4.92e7 | 3.55e7 | – | 2.18e7 | 1.74e7
CG13901 | DRSC08371 | 3.58e7 | 3.68e7 | – | 1.88e7 | 1.77e7
Oat | DRSC11043 | 2.06e7 | 3.18e7 | – | 1.01e7 | 2.32e7
CG15605 | DRSC06558 | 4.37e7 | 3.93e7 | – | 1.91e7 | 1.94e7
Tpst | DRSC18989 | 1.67e7 | 3.18e7 | – | 9.18e6 | 1.29e7
Tpst | DRSC19696 | 4.30e7 | 3.83e7 | – | 1.96e7 | 1.63e7
Tpst | DRSC19723 | 3.78e7 | 4.13e7 | – | 2.00e7 | 2.08e7
Tpst | DRSC19724 | 2.87e7 | 5.32e7 | – | 1.67e7 | 2.66e7
Tpst | DRSC22621 | 4.04e7 | 2.93e7 | – | 2.31e7 | 1.54e7
vap | DRSC20275 | 4.24e7 | 4.09e7 | – | 1.91e7 | 1.82e7
Or74a | DRSC11245 | 5.06e7 | 6.30e7 | – | 2.11e7 | 2.77e7
SIDL | DRSC16077 | 3.51e7 | 4.89e7 | – | 1.54e7 | 2.13e7
l(1)G0320 | DRSC18255 | 3.54e7 | 3.76e7 | – | 1.65e7 | 1.68e7
hzg | DRSC10549 | 4.58e7 | 4.47e7 | – | 2.84e7 | 2.16e7
yki | DRSC04437 | 3.44e7 | – | – | 1.76e7 | –
CG34247 | DRSC09933 | 3.19e7 | 4.34e7 | – | 1.80e7 | 1.86e7
CG42455 + vnc | DRSC09867 | 3.83e7 | 2.76e7 | – | 2.65e7 | 1.46e7
NPFR | DRSC12173 | 4.35e7 | 4.61e7 | – | 2.11e7 | 2.13e7
dbe | DRSC00811 | 3.03e7 | – | – | 1.97e7 | –
CG42512 + CG32573 | DRSC19532 | 2.76e7 | 3.38e7 | – | 1.44e7 | 1.51e7
CG42512 + CG32573 | DRSC19906 | 2.94e7 | 3.26e7 | – | 1.23e7 | 1.38e7
CG42512 + CG32573 | DRSC22782 | 4.70e7 | 3.96e7 | – | 2.77e7 | 1.72e7
CG32075 | DRSC10622 | 2.50e7 | 3.71e7 | – | 1.44e7 | 1.65e7
CG2604 | DRSC12313 | 3.91e7 | 2.55e7 | – | 1.84e7 | 1.20e7
CG16865 | DRSC01904 | 4.14e7 | 3.00e7 | – | 1.83e7 | 1.41e7
CG15408 | DRSC00423 | 2.55e7 | 2.55e7 | – | 1.29e7 | 1.27e7
BomS2 | DRSC21488 | 2.32e7 | 3.32e7 | – | 1.13e7 | 1.40e7
CG1523 | DRSC15033 | 4.55e7 | 4.61e7 | – | 1.84e7 | 2.01e7
CG5567 | DRSC10517 | 4.22e7 | 4.25e7 | – | 1.95e7 | 3.00e7
CG7849 | DRSC04895 | 3.68e7 | 4.99e7 | – | 1.93e7 | 2.38e7
Nct | DRSC16172 | 3.82e7 | 3.76e7 | – | 1.74e7 | 1.45e7
Seipin | DRSC18654 | 5.42e7 | 4.37e7 | 2.1 | 2.56e7 | 1.90e7
Pus10 | DRSC00629 | 3.88e7 | – | – | 1.80e7 | –
CG7248 | DRSC10788 | 3.04e7 | 4.03e7 | – | 1.59e7 | 1.88e7
CG31077 | DRSC13805 | 3.02e7 | 2.16e7 | – | 1.33e7 | 1.13e7
prd | DRSC03597 | 4.61e7 | – | – | 2.10e7 | –
Tdrd3 | DRSC10016 | 3.65e7 | 5.70e7 | – | 1.99e7 | 2.32e7
CG9801 | DRSC16568 | 3.23e7 | 3.79e7 | – | 1.45e7 | 1.59e7
